Data from article PMC4515320.
No constants are given. Whether binding was seen depends on the method and setting. In cells and extracts the contact can be indirect. Some entries that bind do so weakly or less than the wild type.

By UniProt entry, the sequences of proteins in these tests, tags left out.
UniProt P06240: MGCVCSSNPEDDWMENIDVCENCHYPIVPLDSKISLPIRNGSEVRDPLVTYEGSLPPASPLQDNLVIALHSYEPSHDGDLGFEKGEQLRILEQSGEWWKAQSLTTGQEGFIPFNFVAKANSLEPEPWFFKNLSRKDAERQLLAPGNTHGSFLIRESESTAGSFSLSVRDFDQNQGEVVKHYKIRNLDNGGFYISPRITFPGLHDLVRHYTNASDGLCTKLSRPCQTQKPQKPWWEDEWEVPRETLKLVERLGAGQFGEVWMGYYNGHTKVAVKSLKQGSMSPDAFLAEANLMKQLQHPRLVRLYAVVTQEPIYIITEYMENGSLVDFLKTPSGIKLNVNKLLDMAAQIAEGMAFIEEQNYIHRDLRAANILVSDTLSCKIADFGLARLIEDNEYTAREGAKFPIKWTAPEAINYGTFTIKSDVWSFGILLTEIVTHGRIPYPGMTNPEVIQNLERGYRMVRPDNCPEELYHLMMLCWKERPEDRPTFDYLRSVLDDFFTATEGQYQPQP

Target: T1, CR6-interacting factor 1 (CRIF1), mouse (mouse (endogenous in LSTRA)) (UniProt Q9CR59)
T1 sequence: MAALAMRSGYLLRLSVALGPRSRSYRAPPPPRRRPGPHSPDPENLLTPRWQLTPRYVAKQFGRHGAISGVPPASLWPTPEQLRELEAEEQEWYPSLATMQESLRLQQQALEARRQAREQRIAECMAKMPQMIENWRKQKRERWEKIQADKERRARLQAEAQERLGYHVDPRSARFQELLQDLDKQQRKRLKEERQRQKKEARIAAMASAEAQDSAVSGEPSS
Assay: co-IP; LSTRA whole cell lysate immunoprecipitated with anti-CRIF1 antibody or control IgG; Lck and CRIF1 immunoblotting

binding: binds
Substance: Lymphocyte-specific protein tyrosine kinase (Lck), mouse (from UniProt P06240 1-509) (enzyme)
